# Experimental data: EP1171607B1, “STREPTOKINASE FRAGMENTS AND THEIR USE FOR INHIBITING CELL DEATH” (Rabkin, Simon W., priority 1999, dated 2000)
# Part of at least one peptide drawing is inferred or uncertain, most often the ends. Where no end group is shown, it is not given here.
# Columns and labels:
# TF-1 = assay: Serum-deprivation-induced cell death, 3H-thymidine incorporation, TF-1; type: cell-based; settings: TF-1 starved 30 hours with 20 µg/ml peptide, then human interleukin-3 for 22 hours
# [1] = test system: Spinal cord cells isolated from embryonic chicks; assay: Amelioration of ammonium persulfate-induced cell death in spinal cord cells, trypan blue; type: cell-based, chick; settings: 1 mM ammonium persulfate for 1 or 2 hours, 10 µg/ml or 20 µg/ml peptide, Figure 2
# [2] = test system: Cardiac myocytes from embryonic chick hearts; assay: Amelioration of ammonium persulfate-induced cell death in cultured cardiac myocytes, Trypan blue exclusion; type: cell-based; settings: highest concentration of the peptide
# M07E = assay: Serum-deprivation-induced cell death, 3H-thymidine incorporation, M07E; type: cell-based; settings: M07E starved 30 hours with 20 µg/ml peptide, then human interleukin-3 for 22 hours
# isolated rat heart = assay: Left ventricular developed pressure in isolated intact rat heart after ischemia and reperfusion (Langendorff); settings: 45 minutes ischemia, then reperfusion; peptide in perfusate from 15 minutes before reperfusion; Figure 1; listed as 20mer peptide (SEQ. ID NO. 6)
sequence,measurement,setting,value
SVDVEYTQFTDFRGKLTKLL [Peptide 20mer],3H-THYMIDINE COUNTS (COUNTS PER MINUTE),TF-1,"32,701 ± 5,565 COUNTS PER MINUTE"
same,cell survival,[1],almost completely prevented cell death
same,cell survival,[1]; listed as 20mer peptide (SEQ. ID NO. 6),dramatically enhanced cell survival
same,number of dead cells,[2],~20%
same,3H-THYMIDINE COUNTS (COUNTS PER MINUTE),M07E,"4,282 ± 212 COUNTS PER MINUTE"
same,"Left ventricular developed pressure, recovery",isolated rat heart,rapid recovery
